Data: paper PMC7948815

Target: human MettL5 with a C-terminal His6 tag (human)
Assay: co-purification (Ni-NTA, ion exchange, SEC); MettL5-His6 and untagged Trm112 co-expressed in E. coli; Ni-NTA eluted with 250 mM imidazole, HiTrap Q-HP eluted at 300 mM NaCl, Superdex 200 at 150 mM NaCl; 4 °C; SDS-PAGE with Coomassie blue staining

- binding: binds
B1: human Trm112, without any fused tag (protein, UniProt Q9UI30-1 1-125)
chain: MKLLTHNLLSSHVRGVGSRGFPLRLQATEVRICPVEFNPNFVARMIPKVEWSAFLEAADNLRLIQVPKGPVEGYEENEEFLRTMHHLLLEVEVIEGTLQCPESGRMFPISRGIPNMLLSEEETES

Results are given in words; binding and its absence hold for the method and conditions named. In cells and extracts the contact can be indirect. A result given as binding can be weak or reduced; the word gives no strength. Tags and fused reporters may be left off the sequences shown.
